Laboratory results from PubChem BioAssay AID504467 (National Center for Advancing Translational Sciences (NCATS), 2011).
Among all 330,000 compounds or so, about 7,700 (2.3%) were called active. The inconclusive results got no clear call from the source; some entries with a clear call stand among them for comparison. Calls come from the whole dose curve; as a rule, active = well fitted inhibition curve with a large enough effect; inconclusive = small, poorly fitted or top-dose-only effect, or effect the other way; inactive = flat fitted curve, though single readings scatter. Where the call is inconclusive, the potency comes from a doubtful curve fit.

Assay: qHTS screen for small molecules that inhibit ELG1-dependent DNA repair in human embryonic kidney (HEK293T) cells expressing luciferase-tagged ELG1; note: nearly all actives have a fitted effect of over 55% in size
Conditions: HEK293T ELG1-luciferase reporter, luminescence, 16 h, DNA damage induced by 5-fluorouridine; activity change, negative = inhibition: at 46.1 µM (top of the series)
Summary of the method: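 5-Fluorouridine DNA damage + compound/DMSO, 2,000 cells/well, 16 h, 37 °C/5% CO2. ONE-Glo, 30 min RT, luminescence. Readout = decrease in reporter signal.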
% is set by controls: 0 for no effect and ±100 for the full control effect; potency is the fitted concentration of half-maximal effect.

SMILES | Potency | activity change, negative = inhibition
Cc1ccc(C(=O)CN(C(=O)c2ccc(Cl)cc2)N2C(=O)c3ccccc3C2=O)cc1 | inconclusive: 0.58 µM [inhibitor, single point] | –
Cc1nc2ccc(NC(=O)c3cc([N+](=O)[O-])cc([N+](=O)[O-])c3Cl)cc2s1 | inconclusive: 4.11 µM [activator, single point] | –
CCOc1ccc2[nH]c3ncccc3c(=O)c2c1 | – | inactive: 26.3%
CCc1nnc(NC(=O)c2ccc(S(=O)(=O)N3CCc4ccccc4C3)cc2)s1 | – | inactive: 1.47%
CCOCCC(=O)Nc1nnc(CCc2ccccc2)s1 | – | inactive: -0.0468%
OCCN1CCN(Cc2ccc3ccccc3c2)CC1 | – | inactive: 24.3%
Cc1ccc(-c2nc(N)n(S(C)(=O)=O)n2)cc1 | inconclusive: 23.1 µM [activator, single point] | –
CC(C(=O)N1CCN(Cc2ccc3c(c2)OCO3)CC1)n1cc([N+](=O)[O-])cn1 (centres undefined) | – | inactive: -5.13%
CCOC(=O)c1cnc2c(-c3cccc(Br)c3)cnn2c1C | inconclusive: 2.91 µM [activator, partial curve] | –
O=S(=O)(c1ccccc1)c1nc(-c2ccccc2F)oc1NCc1cccnc1 | inconclusive: 14.6 µM [inhibitor, partial curve, poor fit] | –
Cc1cccc(NC(=O)c2c(C)nc3ccccn23)c1 | inconclusive: 14.6 µM [activator, partial curve] | –
COc1ccc(N=Cc2nc(-c3ccccc3)oc2OC(C)=O)cc1 | inconclusive: 20.6 µM [activator, partial curve, poor fit] | –
COc1ccc(C(=O)/C=C/Nc2ccc(S(=O)(=O)Nc3ncccn3)cc2)cc1 | inconclusive: 29.1 µM [activator, single point] | –
CCOc1cc(C(=O)CCC(=O)OCC(=O)N2c3ccccc3NC(=O)C2(C)C)ccc1O | inconclusive: 18.4 µM [inhibitor, partial curve, poor fit] | –
NS(=O)(=O)c1ccc(NC(=O)c2cc(-c3cccs3)nc3ccccc23)cc1 | – | inactive: -9.71%
CN(C)S(=O)(=O)c1cccc(NC(=O)c2cccc(S(=O)(=O)N3CCc4ccccc43)c2)c1 | active: 16.4 µM | –
Cc1c(Cl)c(=O)oc2cc(OCC(=O)N3CCCC(C)C3)ccc12 (centres undefined) | inconclusive: 5.17 µM [inhibitor, partial curve, poor fit] | –
CCCc1nc(SCC(=O)Nc2ccccc2OC)c2c(=O)n(C)c(=O)n(C)c2n1 | active: 23.1 µM | –
C=CCOC(=O)C1=C(C)Nc2ncnn2C1c1cc(Br)ccc1F (centres undefined) | inconclusive: 18.4 µM [inhibitor, partial curve] | –

An excerpt from above in order of formula weight, low to high:
SMILES | Potency | activity change, negative = inhibition
Cc1cccc(NC(=O)c2c(C)nc3ccccn23)c1 | inconclusive: 14.6 µM [activator, partial curve] | –
CCOC(=O)c1cnc2c(-c3cccc(Br)c3)cnn2c1C | inconclusive: 2.91 µM [activator, partial curve] | –
CCCc1nc(SCC(=O)Nc2ccccc2OC)c2c(=O)n(C)c(=O)n(C)c2n1 | active: 23.1 µM | –
